Results deposited as PubChem BioAssay AID1159584 (Peter MacCallum Cancer Centre, 2016)
Purpose: 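Genes that CDH1-null MCF10A cells selectively depend on to survive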 (primary screen). Cell system: human MCF10A breast epithelial cells, parental and CDH1-null. Reagent: siRNA against human genes. Read-out: 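ATP luminescence (CellTiter-Glo) viability per line relative to mean mock wells over all plates, and the ratio of CDH1-null to parental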. Reading the numbers: CDH1-null / parental viability ratio: higher = CDH1-null cells survive relatively better than parental; CDH1-null viability vs mock: higher = more viable CDH1-null cells.
The deposit covers about 18,000 reagents; this is an unselected part. Further read-outs or replicates are left out here. The record does not give: the amount of reagent, the time to read-out.

| gene | CDH1-null / parental viability ratio | CDH1-null viability vs mock (fraction of mock) |
| --- | --- | --- |
| CSK (C-terminal Src kinase) | 0.9 | 0.76 |
| CFAP263 (cilia and flagella associated protein 263) | 1.36 | 0.3 |
| OMD (osteomodulin) | 1.14 | 1.09 |
| RTL10 (retrotransposon Gag like 10) | 1.17 | 0.21 |
| RBM12B (RNA binding motif protein 12B) | 1 | 1.02 |
| LILRA3 (leukocyte immunoglobulin like receptor A3) | 1.37 | 0.92 |
| GORASP2 (golgi reassembly stacking protein 2) | 1.08 | 0.82 |
| TIGD4 (tigger transposable element derived 4) | 1.06 | 0.99 |
| RPL10A (ribosomal protein L10a) | 1.27 | 0.28 |
| BCLAF1 (BCL2 associated transcription factor 1) | 1.1 | 0.86 |
| FTCD (formimidoyltransferase cyclodeaminase) | 0.94 | 0.68 |
| FOXK1 (forkhead box K1) | 1.36 | 1.4 |
| HEATR1 (HEAT repeat containing 1) | 1.06 | 0.55 |
| GPX1 (glutathione peroxidase 1) | 1.04 | 0.88 |
| GRIK2 (glutamate ionotropic receptor kainate type subunit 2) | 1.16 | 0.95 |
| CKAP2 (cytoskeleton associated protein 2) | 1.02 | 0.82 |
| ACCS | 1.23 | 1.08 |
| TTC9B (tetratricopeptide repeat domain 9B) | 0.85 | 0.64 |
| FASTK (Fas activated serine/threonine kinase) | 1.49 | 1.13 |
| ACSM3 (acyl-CoA synthetase medium chain family member 3) | 1.04 | 1 |
| RIMS4 (regulating synaptic membrane exocytosis 4) | 1.08 | 0.82 |
| TSPAN31 (tetraspanin 31) | 0.86 | 0.72 |
| RAB9A (RAB9A, member RAS oncogene family) | 0.92 | 0.92 |
| MIGA2 (mitoguardin 2) | 0.82 | 0.64 |
| CWH43 (cell wall biogenesis 43 C-terminal homolog) | 1.32 | 0.95 |
| PHF11 (PHD finger protein 11) | 0.94 | 0.92 |
| LAX1 (lymphocyte transmembrane adaptor 1) | 1.11 | 0.61 |
| ADAMDEC1 (ADAM like decysin 1) | 1.18 | 0.8 |
| TBCCD1 (TBCC domain containing 1) | 0.87 | 0.73 |
| SAMM50 (SAMM50 sorting and assembly machinery component) | 1.16 | 0.72 |
| RNASE13 (ribonuclease A family member 13 (inactive)) | 0.96 | 0.65 |
| LRPAP1 (LDL receptor related protein associated protein 1) | 0.98 | 0.96 |
| SGSH (N-sulfoglucosamine sulfohydrolase) | 1.06 | 0.56 |
| ZNF383 (zinc finger protein 383) | 0.91 | 0.71 |
| TUBB2B (tubulin beta 2B class IIb) | 1.05 | 0.8 |
| ANTXR2 (ANTXR cell adhesion molecule 2) | 1.12 | 1 |
| CYP8B1 (cytochrome P450 family 8 subfamily B member 1) | 0.73 | 0.64 |
| TRPC4AP | 1 | 0.82 |
| FHL1 (four and a half LIM domains 1) | 1.03 | 0.96 |
| NDUFAF2 (NADH:ubiquinone oxidoreductase complex assembly factor 2) | 1.17 | 0.81 |
| APMAP (adipocyte plasma membrane associated protein) | 0.92 | 0.82 |
| YIF1B | 0.81 | 0.57 |
| C2CD3 (C2 domain containing 3 centriole elongation regulator) | 1.02 | 0.46 |
| SPACA9 (sperm acrosome associated 9) | 1 | 0.99 |
| ARID1B (AT-rich interaction domain 1B) | 0.9 | 0.54 |
| CHSY3 (chondroitin sulfate synthase 3) | 0.83 | 0.73 |
| MAPK1IP1L | 0.96 | 1.24 |
| DUSP23 (dual specificity phosphatase 23) | 1.32 | 0.79 |
| BCAR3 (BCAR3 adaptor protein, NSP family member) | 0.95 | 0.39 |
| HSPB2 (heat shock protein family B (small) member 2) | 0.99 | 0.77 |
| SUGT1P4-STRA6LP-CCDC180 (SUGT1P4-STRA6LP-CCDC180 readthrough) | 0.61 | 0.43 |
| SORBS1 (sorbin and SH3 domain containing 1) | 1.12 | 0.92 |
| VCX2 (variable charge X-linked 2) | 1.03 | 0.74 |
| TIAL1 (TIA1 cytotoxic granule associated RNA binding protein like 1) | 0.89 | 0.78 |
| OTOP2 (otopetrin 2) | 0.86 | 0.56 |
| GPR12 (G protein-coupled receptor 12) | 0.94 | 0.83 |
| ADAMTS6 (ADAM metallopeptidase with thrombospondin type 1 motif 6) | 1.05 | 0.78 |
| EXOC3L4 (exocyst complex component 3 like 4) | 0.8 | 0.48 |
| PDIA6 (protein disulfide isomerase family A member 6) | 1.01 | 0.88 |
| RAPGEF5 (Rap guanine nucleotide exchange factor 5) | 1.2 | 0.96 |
| NELFE (negative elongation factor complex member E) | 0.83 | 0.55 |
| GPATCH4 (G-patch domain containing 4 (gene/pseudogene)) | 0.98 | 0.54 |
| ZC3H7B (zinc finger CCCH-type containing 7B) | 0.8 | 0.7 |
| ANKRD55 (ankyrin repeat domain 55) | 1.19 | 1.08 |
| MASP2 (MBL associated serine protease 2) | 1.17 | 0.47 |
| SERPINA10 (serpin family A member 10) | 1.12 | 0.66 |
| DMBX1 (diencephalon/mesencephalon homeobox 1) | 1.31 | 0.68 |
| CELA2A (chymotrypsin like elastase 2A) | 1.09 | 0.76 |

Not a retest: an excerpt of the list.
| gene | CDH1-null / parental viability ratio | CDH1-null viability vs mock (fraction of mock) |
| --- | --- | --- |
| GRIK2 (glutamate ionotropic receptor kainate type subunit 2) | 1.16 | 0.95 |
| CKAP2 (cytoskeleton associated protein 2) | 1.02 | 0.82 |
| ACCS | 1.23 | 1.08 |
| TTC9B (tetratricopeptide repeat domain 9B) | 0.85 | 0.64 |
| FASTK (Fas activated serine/threonine kinase) | 1.49 | 1.13 |
| ACSM3 (acyl-CoA synthetase medium chain family member 3) | 1.04 | 1 |
| RIMS4 (regulating synaptic membrane exocytosis 4) | 1.08 | 0.82 |
| TSPAN31 (tetraspanin 31) | 0.86 | 0.72 |
| RAB9A (RAB9A, member RAS oncogene family) | 0.92 | 0.92 |
| MIGA2 (mitoguardin 2) | 0.82 | 0.64 |
